According to patent US12723053B2, “KRas inhibitors” (ELI LILLY AND COMPANY, priority 2023, dated 2026):
Some results were stated once for a whole list of compounds, not compound by compound.

Experiments:
[1] = target: HRAS (Homo sapiens, UniProt P01112); assay: Cellular Phospho-ERK AlphaLISA assay, MEF-HRAS cells; type: cell-based, mouse; conditions: RAS-less MEFs expressing HRAS only; read-out: relative IC50, phospho-ERK, MEF-HRAS
[2] = target: NRAS (Homo sapiens, UniProt P01111); assay: Cellular Phospho-ERK AlphaLISA assay, MEF-NRAS cells; type: cell-based, mouse; conditions: RAS-less MEFs expressing NRAS only; read-out: relative IC50, phospho-ERK, MEF-NRAS

| SMILES | IC50 [1] | IC50 [2] |
| --- | --- | --- |
| C[C@@H](O)CN1CC2CCC(C1)N2c1nc(OCC2(CN3CC4(CN(C)C4)C3)CC2)nc2c(F)c(-c3ncc(F)c4sc(N)c(C#N)c34)c3c(c12)COC3 [Example 10, 2-Amino-7-fluoro-4-(5-fluoro-1-(3-((R)-2-hydroxypropyl)-3,8-diazabicyclo[3.2.1]octan-8-yl)-3-((1-((6-methyl-2,6-diazaspiro[3.3]heptan-2-yl)methyl)cyclopropyl)meth-oxy)-7,9-dihydrofuro[3,4-f]quinazolin-6-yl)thieno[3,2-c]pyridine-3-carbonitrile] | > 2000 nM | > 2000 nM |
| COC1CN([C@H]2CCN(c3ncc4c5c(c(-c6ncc(F)c7sc(N)c(C#N)c67)c(F)c4n3)COC5)C2)C1 [Example 14C, 2-Amino-7-fluoro-4-(5-fluoro-3-((S)-3-(3-methoxyazetidin-1-yl)pyrrolidin-1-yl)-7,9-dihydrofuro[3,4-f]quinazolin-6-yl)thieno[3,2-c]pyridine-3-carbonitrile] | > 2000 nM | > 2000 nM |
| CC(C)(C)N[C@H]1CCN(c2ncc3c4c(c(-c5ncc(F)c6sc(N)c(C#N)c56)c(F)c3n2)COC4)C1 [Example 16C, 2-Amino-4-(3-((S)-3-(tert-butylamino)pyrrolidin-1-yl)-5-fluoro-7,9-dihydrofuro[3,4-f]quinazolin-6-yl)-7-fluorothieno[3,2-c]pyridine-3-carbonitrile] | > 2000 nM | > 2000 nM |
| CN1C[C@H]2C[C@@H](C1)N(c1ncc3c4c(c(-c5ncc(F)c6sc(N)c(C#N)c56)c(F)c3n1)COC4)C2 [Example 17C, 2-Amino-7-fluoro-4-(5-fluoro-3-((1R,5S)-3-methyl-3,6-diazabicyclo[3.2.1]octan-6-yl)-7,9-dihydrofuro[3,4-f]quinazolin-6-yl)thieno[3,2-c]pyridine-3-carbonitrile] | > 2000 nM | > 2000 nM |
| CN(C)C1COC2(CCN(c3ncc4c5c(c(-c6ncc(F)c7sc(N)c(C#N)c67)c(F)c4n3)COC5)C2)C1 (centres unmarked) [Example 17D, 2-Amino-4-(3-(3-(dimethylamino)-1-oxa-7-azaspiro[4.4]nonan-7-yl)-5-fluoro-7,9-dihydrofuro[3,4-f]quinazolin-6-yl)-7-fluorothieno[3,2-c]pyridine-3-carbonitrile] | > 2000 nM | > 2000 nM |
| C[C@@H](O)CN1CC2CCC(C1)N2c1nc(N2C3CC2CN(C)C3)nc2c(F)c(-c3ncc(F)c4sc(N)c(C#N)c34)c3c(c12)COC3 [Example 18B, 2-Amino-7-fluoro-4-(5-fluoro-1-(3-((R)-2-hydroxypropyl)-3,8-diazabicyclo[3.2.1]octan-8-yl)-3-(3-methyl-3,6-diazabicyclo[3.1.1]heptan-6-yl)-7,9-dihydrofuro[3,4-f]quinazolin-6-yl)thieno[3,2-c]pyridine-3-carbonitrile] | > 2000 nM | > 2000 nM |
| CN(C)C1CN(c2ncc3c4c(c(-c5ncc(F)c6sc(N)c(C#N)c56)c(F)c3n2)COC4)CC12COC2 (centres unmarked) [Example 20C, 2-Amino-4-(3-(8-(dimethylamino)-2-oxa-6-azaspiro[3.4]octan-6-yl)-5-fluoro-7,9-dihydrofuro[3,4-f]quinazolin-6-yl)-7-fluorothieno[3,2-c]pyridine-3-carbonitrile] | > 2000 nM | > 2000 nM |
| CN1CC2CN(c3ncc4c5c(c(-c6ncc(F)c7sc(N)c(C#N)c67)c(F)c4n3)COC5)C2C1 (centres unmarked) [Example 21C, 2-Amino-7-fluoro-4-(5-fluoro-3-(3-methyl-3,6-diazabicyclo[3.2.0]heptan-6-yl)-7,9-dihydrofuro[3,4-f]quinazolin-6-yl)thieno[3,2-c]pyridine-3-carbonitrile] | > 2000 nM | > 2000 nM |
| CC(C)N[C@H]1CN(c2ncc3c4c(c(-c5ncc(F)c6sc(N)c(C#N)c56)c(F)c3n2)COC4)CC12CC2 [Example 26C, 2-Amino-7-fluoro-4-(5-fluoro-3-((R)-7-(isopropylamino)-5-azaspiro[2.4]heptan-5-yl)-7,9-dihydrofuro[3,4-f]quinazolin-6-yl)thieno[3,2-c]pyridine-3-carbonitrile] | > 2000 nM | > 2000 nM |
| N#Cc1c(N)sc2c(F)cnc(-c3c4c(c5cnc(N6CCC7NCCCC76)nc5c3F)COC4)c12 (centres unmarked) [Example 28C, 2-Amino-7-fluoro-4-(5-fluoro-3-(octahydro-1H-pyrrolo[3,2-b]pyridin-1-yl)-7,9-dihydrofuro[3,4-f]quinazolin-6-yl)thieno[3,2-c]pyridine-3-carbonitrile] | > 2000 nM | > 2000 nM |
| CN1C[C@@H]2CN(c3ncc4c5c(c(-c6ncc(F)c7sc(N)c(C#N)c67)c(F)c4n3)COC5)C[C@@H]2C1 [Example 29A, 2-Amino-7-fluoro-4-(5-fluoro-3-((3 a R,6aS)-5-methylhexahydropyrrolo[3,4-c]pyrrol-2(1H)-yl)-7,9-dihydrofuro[3,4-f]quinazolin-6-yl)thieno[3,2-c]pyridine-3-carbonitrile] | > 2000 nM | > 2000 nM |
| CC(C)(O)C1CN(CC2(COc3ncc4c5c(c(-c6ncc(F)c7sc(N)c(C#N)c67)c(F)c4n3)COC5)CC2)C1 [Example 31, 2-Amino-7-fluoro-4-(5-fluoro-3-((1-((3-(2-hydroxypropan-2-yl)azetidin-1-yl)methyl)cyclopropyl)methoxy)-7,9-dihydrofuro[3,4-f]quinazolin-6-yl)thieno[3,2-c]pyridine-3-carbonitrile] | > 2000 nM | > 2000 nM |
| COC[C@@H]1CCCN1[C@@H]1CCN(c2ncc3c4c(c(-c5ncc(F)c6sc(N)c(C#N)c56)c(F)c3n2)COC4)C1 [Example 31D, 2-Amino-7-fluoro-4-(5-fluoro-3-((2S,3′R)-2-(methoxymethyl)-[1,3′-bipyrrolidin]-1′-yl)-7,9-dihydrofuro[3,4-f]quinazolin-6-yl)thieno[3,2-c]pyridine-3-carbonitrile] | > 2000 nM | > 2000 nM |
| CO[C@H]1CN(c2ncc3c4c(c(-c5ncc(F)c6sc(N)c(C#N)c56)c(F)c3n2)COC4)C[C@H]1N(C)C [Example 34B, 2-Amino-4-(3-((3R,4S)-3-(dimethylamino)-4-methoxypyrrolidin-1-yl)-5-fluoro-7,9-dihydrofuro[3,4-f]quinazolin-6-yl)-7-fluorothieno[3,2-c]pyridine-3-carbonitrile] | > 2000 nM | > 2000 nM |
| CN1CCN([C@@H]2CCN(c3ncc4c5c(c(-c6ncc(F)c7sc(N)c(C#N)c67)c(F)c4n3)COC5)C2)CC1 [Example 38C, 2-Amino-7-fluoro-4-(5-fluoro-3-((R)-3-(4-methylpiperazin-1-yl)pyrrolidin-1-yl)-7,9-dihydrofuro[3,4-f]quinazolin-6-yl)thieno[3,2-c]pyridine-3-carbonitrile] | > 2000 nM | > 2000 nM |
| CO[C@@H]1CN(c2ncc3c4c(c(-c5ncc(F)c6sc(N)c(C#N)c56)c(F)c3n2)COC4)C[C@H]1NC(C)C [Example 40C, 2-Amino-7-fluoro-4-(5-fluoro-3-((3R,4R)-3-(isopropylamino)-4-methoxypyrrolidin-1-yl)-7,9-dihydrofuro[3,4-f]quinazolin-6-yl)thieno[3,2-c]pyridine-3-carbonitrile] | > 2000 nM | > 2000 nM |
